In all, about 33,000 sequences were measured (“E-score (-0.5 to 0.5)”: median about -0.0014, highest 2% from about 0.25 on). The list shows a part of the results.
Target: T1, Cad1 (UniProt P24813)
T1 sequence: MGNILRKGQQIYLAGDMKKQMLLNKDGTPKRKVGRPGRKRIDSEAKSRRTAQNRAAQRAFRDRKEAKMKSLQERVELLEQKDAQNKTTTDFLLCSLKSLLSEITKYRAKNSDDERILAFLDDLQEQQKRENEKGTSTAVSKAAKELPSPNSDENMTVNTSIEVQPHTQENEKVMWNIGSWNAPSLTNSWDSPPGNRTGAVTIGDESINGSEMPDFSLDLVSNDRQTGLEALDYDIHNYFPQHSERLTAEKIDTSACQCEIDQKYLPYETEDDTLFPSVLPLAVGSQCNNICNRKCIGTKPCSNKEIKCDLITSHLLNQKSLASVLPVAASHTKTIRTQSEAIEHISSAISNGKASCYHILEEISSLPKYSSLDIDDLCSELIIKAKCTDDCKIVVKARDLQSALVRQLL
Assay: PBM E-score (8-mer binding enrichment) (E-score (-0.5 to 0.5)); higher = stronger / more preferred TF binding
Conditions: protein concentration: 100 nM; construct: GST-full length
Experimental: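 Universal 'all 10-mer' protein binding microarrays (Agilent AMADID 015681) probed with GST-tagged S. cerevisiae TFs (full-length or DBD) made by in vitro transcription/translation (PURExpress), about 100-200 nM. Bound TF was detected with fluorescent anti-GST. Each ungapped 8-mer (which stands for itself and its reverse complement) is scored by the PBM enrichment score (E-score), a modified Wilcoxon-Mann-Whitney statistic from -0.5 to +0.5, computed with the Universal PBM Analysis Suite. Scale: above 0.35 generally sequence-specific binding.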

| Sequence | PBM E-score |
| --- | --- |
| TACGTTCA | 0.111 |
| ATGATGCG | 0.158 |
| CCGCGCCG | 0.174 |
| CCCGAGTC | 0.0313 |
| CAACGTGA | -0.105 |
| ATTGATCG | 0.0372 |
| ATGGCAGA | 0.131 |
| GTTTGTTA | 0.202 |
| AAACTGCG | -0.107 |
| ATGCGCGG | 0.0897 |
| CAGGAACA | -0.0906 |
| CTAGACAA | 0.0181 |
| CTAGTCGC | -0.0345 |
| AGGGGGGC | -0.471 |
| GACGTGAA | 0.11 |
| AACTAGCC | -0.0573 |
| GAAGCGGC | -0.167 |
| ACAGCAAG | 0.00019 |
| ACGGCCCC | -0.306 |
| AATTTCAG | 0.0613 |
| AATAACCG | -0.0312 |
| ATAACTTG | -0.0128 |
| TCCGTCAA | 0.0759 |
| ATTTACAA | 0.189 |
| AGCCAAGG | 0.0527 |

| Sequence | PBM E-score |
| --- | --- |
| AAAACTTA | 0.199 |
| CCTTGCCC | -0.00273 |
| AAGTGTTA | 0.0352 |
| TACTACAA | 0.156 |
| AGACAGCA | -0.075 |
| CATACTCG | 0.101 |
| ACCGAAAG | -0.0907 |
| AATAAACC | 0.0524 |
| TCGCCAGA | 0.0743 |
| ATTAACGC | 0.0741 |
| AGCGGACA | 0.00748 |
| ACATAAAC | 0.0822 |
| TCACCGAA | 0.0638 |
| AATTAGCA | 0.238 |
| CTACTCGA | 0.00532 |
| AAAAAAGA | 0.00316 |
| ACGTGATA | 0.0525 |
| AATCCACG | 0.048 |
| TAAGCATA | 0.197 |
| ATGAAGTC | -0.128 |
| CTAGTACC | -0.0753 |
| GTAGGATA | -0.116 |
| ACGAGAAG | -0.191 |
| CGCCCGAC | -0.0329 |
| AATATAAC | 0.195 |

Retrieved one by one from above (6):

| Sequence | PBM E-score |
| --- | --- |
| AAAACTTA | 0.199 |
| ATTTACAA | 0.189 |
| ATGGCAGA | 0.131 |
| AAGTGTTA | 0.0352 |
| AATATAAC | 0.195 |
| AATTTCAG | 0.0613 |

Following part:

| Sequence | PBM E-score |
| --- | --- |
| AAATGGTT | 0.145 |
| CAGTCCAA | -0.07 |
| ACACGAGA | -0.102 |
| ATGGGCCA | 0.00956 |
| ACTATACC | 0.03 |
| CGTACGGA | 0.116 |
| GTTGACCA | 0.138 |
| AAGTTACT | 0.0457 |
| CCTAGAGG | -0.272 |
| ATAAGCAG | 0.239 |
| ACCCGGGC | -0.177 |
| GCACGTCC | -0.036 |
| CGCGCGCA | 0.242 |
| ATCCTCGC | 0.00072 |
| CACCCCGA | -0.177 |
| TGTTCTAA | 0.144 |
| AACGGGAC | -0.148 |
| ATTAACTC | 0.2 |
| TGGCGCAA | -0.0637 |
| GCCGTGAA | 0.0361 |
| AGAGCACC | -0.227 |
| AGTCGACG | 0.296 |
| AGGGTAGC | -0.0956 |
| AGATTAAG | -0.00576 |
| GGGTGAAA | 0.0237 |

| Sequence | PBM E-score |
| --- | --- |
| GGTGTCTA | -0.0772 |
| GAGCGAAC | -0.0683 |
| GAGCGTCA | -0.0479 |
| CGGTATGA | 0.103 |
| CATGCGTC | -0.0251 |
| ATATCTCG | 0.00582 |
| AGCCGAGC | 0.0959 |
| AAGAGTCA | 0.0374 |
| AATGAAAG | 0.0531 |
| AGCGAGTG | 0.0301 |
| GTGTGCTA | -0.0236 |
| ATAACACC | 0.0736 |
| TCAATACA | 0.073 |
| TAACACGA | 0.201 |
| AGTCCTAA | 0.00092 |
| GGATGACA | 0.249 |
| ATCCAAGG | 0.0167 |
| ACAGTCGG | 0.109 |
| CTTAGTTA | 0.164 |
| ACACACGT | -0.0487 |
| AGCAAAAA | 0.0435 |
| TGGACTAA | 0.0345 |
| CCGAGGCG | 0.0257 |
| TCACGGCA | 0.16 |
| ACTATCGG | 0.0996 |

Two entries from above in a different format.
Sequence	PBM E-score
ACCCGGGC	-0.177
GCACGTCC	-0.036

More results follow.

| Sequence | PBM E-score |
| --- | --- |
| CAATGTCA | 0.122 |
| CTTCCGTA | 0.0867 |
| ACGTAATC | 0.286 |
| AAGGTCAT | -0.0403 |
| CGGTGCCC | -0.0813 |
| AATTGAGT | 0.101 |
| CTGTAACA | -0.195 |
| AAAAAAGT | -0.06 |
| ACTCTGTG | 0.0645 |
| CCACATCA | -0.0769 |
| ATGGATTC | 0.0094 |
| AACCCCGG | -0.305 |
| ACCCCTGA | -0.0586 |
| GCAATGAA | 0.0772 |
| GTGATAGA | 0.0543 |
| AGTTGGCA | -0.0141 |
| ACTTCACT | -0.00075 |
| AATAAGGA | -0.0943 |
| ATTTAAAG | 0.151 |
| GCGGAAGC | 0.0712 |
| CCGCGATC | 0.17 |
| CTGGGACC | -0.241 |
| AACTCCAG | -0.139 |
| GGCTTAGA | -0.052 |
| CATTCCAC | -0.0176 |

A few values from the results shown.
PBM E-score with GCAATGAA reads 0.0772
PBM E-score with AATAAGGA reads -0.0943
PBM E-score with ATGGATTC reads 0.0094
PBM E-score with CTGGGACC reads -0.241

Additional results follow.

| Sequence | PBM E-score |
| --- | --- |
| CTGCTCAA | -0.121 |
| AACCATAG | -0.0765 |
| GGCAAGCA | -0.0921 |
| ACTGTGAC | 0.226 |
| AGATAAAG | -0.0645 |
| ACAATCCA | 0.191 |
| AACTTAGC | 0.0408 |
| ATTTAAAT | 0.0974 |
| GGATTGCC | -0.104 |
| ATGACTCG | -0.131 |
| ACACGAGC | -0.072 |
| ACCTTAAT | -0.0443 |
| CAATTCAA | 0.0951 |
| AATCGGGC | 0.0582 |
| CAAGCATG | -0.00052 |
| CATTCGCG | 0.127 |
| CGACGGGC | -0.0324 |
| CTAACGGC | 0.00942 |
| ACATATAT | 0.155 |
| ACGACGGC | -0.0955 |
| CACTACGG | 0.00941 |
| GTCAGTGA | -0.001 |
| TCCGATCA | 0.0943 |
| AGAGAAAA | 0.158 |
| ATTGGACG | 0.0394 |

| Sequence | PBM E-score |
| --- | --- |
| GTATATAA | 0.182 |
| AGTGACGG | 0.00602 |
| ACTTTGCC | -0.085 |
| CCCTTTGC | -0.143 |
| ATTTCGGC | 0.0331 |
| AGCCAAGA | -0.0925 |
| AGTGTTTA | 0.232 |
| CAGCTGCC | 0.0958 |
| GATTGGCA | -0.00546 |
| AGCTAGAC | 0.0216 |
| CTACCCTC | -0.121 |
| ACCAGCAA | 0.0331 |
| ACGAGCCT | -0.156 |
| GCCCTCGA | -0.0898 |
| CGTAGGCC | -0.103 |
| AGCGTATC | -0.0329 |
| GCGATCAA | 0.0564 |
| GTCATGTA | -0.0686 |
| GCACCCAA | -0.00062 |
| CTAAGCAG | -0.078 |
| ATGGGTTG | 0.133 |
| TCAATCCA | -0.00731 |
